# Reference: publication PMC12525039
# The chains behind the UniProt entries cited, without tags or fusion partners. Where a name states a change or a piece, a line headed by the entry shows the natural chain unless it says otherwise. A line that says so, or that is headed by a name, gives the form on record, which may keep a tag or linker.
# UniProt P16389: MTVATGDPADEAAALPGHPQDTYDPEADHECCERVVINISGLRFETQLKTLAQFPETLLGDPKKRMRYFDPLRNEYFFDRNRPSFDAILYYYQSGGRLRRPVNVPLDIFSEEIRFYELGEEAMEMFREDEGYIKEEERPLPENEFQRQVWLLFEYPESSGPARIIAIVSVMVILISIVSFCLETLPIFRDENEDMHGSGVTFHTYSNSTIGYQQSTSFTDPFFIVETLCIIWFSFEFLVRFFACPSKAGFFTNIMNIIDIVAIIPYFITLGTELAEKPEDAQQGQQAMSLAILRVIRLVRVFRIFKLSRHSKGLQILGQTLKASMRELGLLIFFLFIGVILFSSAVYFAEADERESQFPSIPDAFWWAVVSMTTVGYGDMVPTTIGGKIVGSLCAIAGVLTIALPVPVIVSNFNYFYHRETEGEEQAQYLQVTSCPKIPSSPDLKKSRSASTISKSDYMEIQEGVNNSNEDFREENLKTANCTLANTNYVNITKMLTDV
# UniProt Q09470: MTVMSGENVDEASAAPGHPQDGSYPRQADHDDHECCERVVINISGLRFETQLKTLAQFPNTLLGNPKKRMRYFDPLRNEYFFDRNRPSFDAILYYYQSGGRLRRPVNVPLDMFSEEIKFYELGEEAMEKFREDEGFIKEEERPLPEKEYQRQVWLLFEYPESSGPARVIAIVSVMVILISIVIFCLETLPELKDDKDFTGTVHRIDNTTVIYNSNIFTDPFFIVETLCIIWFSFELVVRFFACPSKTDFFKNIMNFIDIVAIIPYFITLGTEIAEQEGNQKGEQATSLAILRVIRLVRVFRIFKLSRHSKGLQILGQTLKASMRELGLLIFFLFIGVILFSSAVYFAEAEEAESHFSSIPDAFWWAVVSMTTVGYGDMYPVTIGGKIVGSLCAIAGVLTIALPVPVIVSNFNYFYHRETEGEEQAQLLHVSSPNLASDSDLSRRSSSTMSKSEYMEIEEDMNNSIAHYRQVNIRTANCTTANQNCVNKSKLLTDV
# K-Kv1.1m, the K-Kv1.1 protein bearing mutation T226R (Q09470, form named): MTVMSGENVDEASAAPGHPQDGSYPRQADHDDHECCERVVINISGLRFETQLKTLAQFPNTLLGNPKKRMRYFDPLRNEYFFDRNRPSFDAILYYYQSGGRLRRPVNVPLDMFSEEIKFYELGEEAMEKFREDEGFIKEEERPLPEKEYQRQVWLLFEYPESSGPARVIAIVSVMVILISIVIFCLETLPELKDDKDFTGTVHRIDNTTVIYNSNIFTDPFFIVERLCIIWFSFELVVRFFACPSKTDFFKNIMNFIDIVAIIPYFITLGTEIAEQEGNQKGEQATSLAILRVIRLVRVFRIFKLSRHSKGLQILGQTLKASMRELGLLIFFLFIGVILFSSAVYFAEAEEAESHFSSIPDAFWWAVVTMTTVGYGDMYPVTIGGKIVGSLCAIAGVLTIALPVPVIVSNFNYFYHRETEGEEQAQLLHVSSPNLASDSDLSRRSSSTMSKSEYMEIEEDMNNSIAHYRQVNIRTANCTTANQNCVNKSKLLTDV
# Results are given in words; binding and its absence hold for the method and conditions named. In cells and extracts the contact can be indirect. Some entries that bind do so weakly or less than the wild type.
# Target: C-Kv1.2, human Kv1.2 alpha-subunit fused at the N-terminus with TagCFP and bearing S371T (human) (UniProt P16389)
# Test: FRET or BRET
substance,measurement,value
"K-Kv1.1m, the K-Kv1.1 protein bearing mutation T226R (from UniProt Q09470 1-495)",binding,binds
